In publication PMC8558138:
Results are given in words; binding and its absence hold for the method and conditions named.

The chains behind the UniProt entries cited, without tags or fusion partners. Residues count along the entry.
UniProt Q902F9, residues 90-699: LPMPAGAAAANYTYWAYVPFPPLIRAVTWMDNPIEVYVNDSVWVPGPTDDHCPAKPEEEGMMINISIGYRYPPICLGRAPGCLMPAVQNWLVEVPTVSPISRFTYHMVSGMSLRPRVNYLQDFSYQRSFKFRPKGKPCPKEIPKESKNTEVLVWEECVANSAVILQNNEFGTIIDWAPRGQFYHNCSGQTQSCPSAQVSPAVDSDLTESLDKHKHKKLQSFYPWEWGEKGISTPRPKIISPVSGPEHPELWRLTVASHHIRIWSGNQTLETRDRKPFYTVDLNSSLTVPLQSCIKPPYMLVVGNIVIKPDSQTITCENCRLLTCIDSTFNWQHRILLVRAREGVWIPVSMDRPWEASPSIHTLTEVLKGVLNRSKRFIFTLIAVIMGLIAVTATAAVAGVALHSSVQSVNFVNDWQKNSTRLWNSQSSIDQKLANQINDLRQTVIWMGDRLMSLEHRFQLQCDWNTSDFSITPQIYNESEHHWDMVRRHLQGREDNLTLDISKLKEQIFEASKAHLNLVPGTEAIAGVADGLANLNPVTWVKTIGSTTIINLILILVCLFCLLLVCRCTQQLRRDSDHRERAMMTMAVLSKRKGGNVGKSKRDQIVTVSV

Target: HERV-K ENV (HERV-K113 clone) expressed in HEK293T cells (pCMV-HERV-K ENV) (human) (UniProt Q902F9)
Test: automated capillary Western blot (Simple Western, WES); lysates of transfected HEK293T cells in RIPA with 1% fos-cholin 16, soluble and insoluble fractions, denatured at 95 °C; 12-230 kDa and 66-440 kDa matrices; detection with GN_mAb_Env01, GN_mAb_Env04, GN_mAb_Env-K01 or anti-FLAG

- binding: no binding
Substance: HERV-K ENV (HERV-K113 clone) expressed in HEK293T cells (pCMV-HERV-K ENV) (from UniProt Q902F9 90-699)
